Measured values taken from US20110290693A1, “Abnormal Scar Therapy” (priority 2007, published 2011).
For at least one compound, name, drawing or mass did not settle the structure.

Test system: adrenal gland function
Experiment: Adrenal gland function after treatment (patient)
Assay type: in vivo, human
Conditions: Example 4 patient; course of oral methylprednisolone

C[C@H]1C[C@@H]2[C@H]([C@@H](O)C[C@@]3(C)[C@H]2CC[C@]3(O)C(=O)CO)[C@@]2(C)C=CC(=O)C=C12 [methylprednisolone]
treatment of adrenal gland function depression: successfully treated
